Experimental data published in patent US20180258181A1.
No constants are given. Whether binding was seen depends on the method and setting. Some binding calls cover weakened binding; strength is not graded here.

By UniProt entry, the sequences of proteins in these tests, tags left out. Where a name states a change or a piece, a line headed by the entry shows the natural chain unless it says otherwise.
UniProt Q13421: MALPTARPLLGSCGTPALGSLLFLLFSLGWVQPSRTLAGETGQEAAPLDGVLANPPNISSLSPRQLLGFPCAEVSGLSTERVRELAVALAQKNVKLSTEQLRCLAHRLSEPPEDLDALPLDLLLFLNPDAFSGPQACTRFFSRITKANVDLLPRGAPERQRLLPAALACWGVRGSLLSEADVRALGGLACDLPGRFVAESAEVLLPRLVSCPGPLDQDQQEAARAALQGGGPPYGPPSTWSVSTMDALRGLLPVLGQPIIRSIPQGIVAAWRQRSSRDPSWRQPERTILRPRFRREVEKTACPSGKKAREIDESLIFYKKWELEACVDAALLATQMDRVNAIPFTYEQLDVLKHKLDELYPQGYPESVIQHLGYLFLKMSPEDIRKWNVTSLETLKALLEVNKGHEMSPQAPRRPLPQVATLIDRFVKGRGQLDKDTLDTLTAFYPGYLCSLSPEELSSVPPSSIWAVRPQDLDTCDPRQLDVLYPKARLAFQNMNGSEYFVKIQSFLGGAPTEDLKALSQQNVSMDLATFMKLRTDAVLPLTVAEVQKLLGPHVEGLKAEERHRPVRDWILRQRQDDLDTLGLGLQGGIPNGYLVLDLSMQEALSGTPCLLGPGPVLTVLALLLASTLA

Columns and labels:
[1] = biological target: mesothelin on CHO-A9 cells (CHO-K1 stably transfected with the GPI-anchored C-terminal part of mesothelin) (Homo sapiens (Human)) (UniProt Q13421); assay: immunoblot of CHO-A9 cell extract, SDS-PAGE denaturing and reducing, MF-J-IgG as primary antibody, ECL
[2] = biological target: recombinant, deglycosylated mesothelin (Homo sapiens (Human)) (UniProt Q13421); assay: immunoblot
[3] = biological target: recombinant, deglycosylated mesothelin (Homo sapiens (Human)) (UniProt Q13421); assay: immunoblot of recombinant deglycosylated mesothelin, SDS-PAGE denaturing and reducing, MF-J-IgG as primary antibody, ECL
[4] = biological target: mesothelin on CHO-A9 cells (CHO-K1 stably transfected with the GPI-anchored C-terminal part of mesothelin) (Homo sapiens (Human)) (UniProt Q13421); assay: immunoblot of cell extract, denaturing and reducing SDS-PAGE
[5] = biological target: mesothelin on CHO-A9 cells (CHO-K1 stably transfected with the GPI-anchored C-terminal part of mesothelin) (Homo sapiens (Human)) (UniProt Q13421); assay: 125I-labelled antibody bound to CHO-A9 cells with second antibody, kept at 0 °C; supernatant, acid wash and pellet counted
[6] = biological target: mesothelin on CHO-A9 cells (CHO-K1 stably transfected with the GPI-anchored C-terminal part of mesothelin) (Homo sapiens (Human)) (UniProt Q13421); assay: 125I-labelled antibody (1 ug/ml) bound to CHO-A9 cells at 0 °C with second antibody, then 37 °C; supernatant, acid wash and pellet counted

Measured: binding

B1: MF-J IgG (antibody, V domains shown)
VH: QVELVQSGAEVKKPGESLKISCKGSGYSFTNYWIGWVRQMPGKGLEWMGVIMPSDSYTRYSPSFQGQVTISADKSISTAYLQWSSLKASDTAMYYCARYGHGMYGGALDVWGQGTLVTVSS
VL: DIVLTQSPATLSLSPGERATLSCRASQSVRSSRLAWYQQKPGQAPRLLIYGASKRATGVPARFSGSGSGTDFTLTISSLEPEDFATYYCQQYYDFPPTFGQGTKVEIKR
binds: [1] | [2] | [3] | [4]

B2: MF-226 IgG (antibody, V domains shown)
VH: QVELVQSGAEVKKPGASVKVSCKASGYTFTGNYINWVRQAPGQGLEWMGIINPHGGDTKYAQKFQGRVTMTRDTSISTAYMELSSLRSEDTAVYYCARWHHGTWIFDYWGQGTLVTVSS
VL: DIVLTQPPSVSGAPGQRVTISCSGSSSNIGSNYVSWYQQLPGTAPKLLIYNDNQRPSGVPDRFSGSKSGTSASLAITGLQSEDEADYYCSTYDRRTFSVFGGGTKLTVLG
binds: [5] | [6]
